The values that follow come from PubChem BioAssay AID216 (DTP/NCI, 2004).

The test system of this experiment is BDF1 mice, P288 leukemia ip, survival T/C. In words: NCI In Vivo Anticancer Drug Screen. Data for tumor model P288 Lymphocytic Leukemia (intraperitoneal) in B6D2F1 (BDF1) mice. The following applies: T/C endpoint: survival time, mean or median, higher T/C = longer survival. The protocol: The antitumor activity of compounds was measured in mice bearing transplantable tumors. Survival or tumor size were measured and the results are expressed as the measurement made in the treated group (T) divided by the measurement made in the vehicle treated control group (C). The tumor model used in this assay is P288 Lymphocytic Leukemia (intraperitoneal) in B6D2F1 (BDF1) mice

Where [1] appears, read: dose: 1.25 mg/kg/injection, schedule: Q01DX Z (ip), vehicle: carboxymethylcellulose (CMC).
[2] abbreviates: dose: 2.5 mg/kg/injection, schedule: Q01DX Z (ip), vehicle: carboxymethylcellulose (CMC).
The mark [3] stands for this setting: dose: 5.0 mg/kg/injection, schedule: Q01DX Z (ip), vehicle: carboxymethylcellulose (CMC).
Setting [4] is: dose: 10.0 mg/kg/injection, schedule: Q01DX Z (ip), vehicle: carboxymethylcellulose (CMC).
[5] abbreviates: dose: 16.0 mg/kg/injection, schedule: Q01DX Z (ip), vehicle: carboxymethylcellulose (CMC).
Setting [6] is: dose: 32.0 mg/kg/injection, schedule: Q01DX Z (ip), vehicle: carboxymethylcellulose (CMC).
Where [7] appears, read: dose: 200.0 mg/kg/injection, schedule: Q01DX Z (ip), vehicle: carboxymethylcellulose (CMC).
[8] abbreviates: dose: 20.0 mg/kg/injection, schedule: Q01DX010 (ip), vehicle: saline.
The mark [9] stands for this setting: dose: 25.0 mg/kg/injection, schedule: Q01DX Z (ip), vehicle: carboxymethylcellulose (CMC).
[10] abbreviates: dose: 50.0 mg/kg/injection, schedule: Q01DX Z (ip), vehicle: carboxymethylcellulose (CMC).
Where [11] appears, read: dose: 40.0 mg/kg/injection, schedule: Q01DX010 (ip), vehicle: saline.
[12] abbreviates: dose: 500.0 mg/kg/injection, schedule: Q01DX Z (ip), vehicle: carboxymethylcellulose (CMC).

The list shows only some results of the screen, not a fair sample: it is rich in T/C values a quarter to a half above the control, in often repeated tests (any T/C) and in doses without a T/C. Other doses and runs of a compound stand elsewhere. T/C: endpoint of the treated group in % of that of the vehicle group. Some entries give survivors of the animals treated and no T/C: the source files T/C as zero there, which appears to mark a toxic dose or a test without result, not a measured value. Some survivor counts are full or nearly so, which does not show that the dose was tolerated: survival well below the control is almost never listed, so the zero probably covers shortened survival too. Counts of survivors are from the toxicity check (mostly the fifth day) where no day follows; animals may have died later. Schedule codes are those of the source, read here as Q, the interval in days (D) or hours (H), X, the number of doses. Some schedules carry Z or #; the key to these is not given. Some molecules as drawn cover several salts, stereoisomers or complexes of the source; a dose is that of the sample tested. Some doses were run more than once; their values stand side by side, smallest first. Where survival is the endpoint, the PubChem record calls one and a half times the control and up active, and a quarter to a half above the control has no call in these data; cut-offs in other NCI protocols can differ. Some T/C values carry the count of animals alive at the toxicity check (mostly the fifth day); without a count, all were alive then. Signs of the kind (2×) give the number of equal values in this list. Numbered stars: 1 amine (or outer) side, 2 acyl side, 3 side chain; on linkers, the order of the positions; unused ones are H or OH. Bridge positions count the residues as written; N and C are the ends. Square brackets hold non-standard residues; d marks the D form. Peptide text beside a SMILES is read from it. I, II: the chains in the order shown. Actinocin(9to1) = Cc1c2oc3c(C)ccc(C(=O)[*:1])c3nc-2c(C(=O)[*:2])c(N)c1=O; aThr = C[C@H](O)[C@H](N)C(=O)O; NMeV = CN[C@H](C(=O)O)C(C)C; Sar = CNCC(=O)O

In the case of `Nc1nc(=S)c2ncn(C3OC(CO)C(O)C3O)c2[nH]1` (centres undefined), the survivor count is listed as 6 of 6 (dose: 0.04 mg/kg/injection, schedule: Q01DX Z (ip), vehicle: carboxymethylcellulose (CMC)); 6 of 6 (dose: 0.08 mg/kg/injection, schedule: Q01DX Z (ip), vehicle: carboxymethylcellulose (CMC)); 6 of 6 (dose: 0.16 mg/kg/injection, schedule: Q01DX Z (ip), vehicle: carboxymethylcellulose (CMC)); 6 of 6 (dose: 0.32 mg/kg/injection, schedule: Q01DX Z (ip), vehicle: carboxymethylcellulose (CMC)); 6 of 6 (dose: 0.63 mg/kg/injection, schedule: Q01DX Z (ip), vehicle: carboxymethylcellulose (CMC)); 6 of 6 under setting [1]. Also, the survivor count under setting [2] is 6 of 6, the survivor count under setting [3] is on record as 6 of 6 and the survivor count under setting [4] is recorded as 6 of 6. For the same molecule, under “dose: 2.0 mg/kg/injection, schedule: Q01DX010 (ip), vehicle: saline”, the T/C was 137 % of control.
Take `Cc1c2oc3c(C)ccc(C(=O)N[C@@H]4C(=O)N[C@H](C(C)C)C(=O)N5CCC[C@H]5C(=O)N(C)CC(=O)N(C)[C@@H](C(C)C)C(=O)O[C@H]4C)c3nc-2c(C(=O)N[C@@H]2C(=O)N[C@H](C(C)C)C(=O)N3CCC[C@H]3C(=O)N(C)CC(=O)N(C)[C@@H](C(C)C)C(=O)O[C@H]2C)c(N)c1=O` (I: [aThr][dV]P[Sar][NMeV] / II: [aThr][dV]P[Sar][NMeV]; ester I:1-I:C, II:1-II:C; linker I:N-II:N via Actinocin(9to1)): the T/C runs as follows: (dose: 0.01 mg/kg/injection, schedule: Q01DX010 (ip), vehicle: other) 133 % of control; (dose: 0.03 mg/kg/injection, schedule: Q01DX010 (ip), vehicle: other) 138 % of control; (dose: 0.1 mg/kg/injection, schedule: Q01DX010 (ip), vehicle: other) 133 % of control.
On to `Nc1nc(=S)c2[nH]cnc2[nH]1`, for which the T/C (dose: 1.0 mg/kg/injection, schedule: Q01DX Z (ip), vehicle: carboxymethylcellulose (CMC)) was 125 % of control; the T/C (dose: 1.25 mg/kg/injection, schedule: Q01DX010 (ip), vehicle: other) was 142 and 147 % of control; the T/C (dose: 2.5 mg/kg/injection, schedule: Q01DX010 (ip), vehicle: other) is 136 % of control. Moreover, the survivor count runs as follows: (dose: 4.0 mg/kg/injection, schedule: Q01DX Z (ip), vehicle: carboxymethylcellulose (CMC)) 6 of 6; (dose: 8.0 mg/kg/injection, schedule: Q01DX Z (ip), vehicle: carboxymethylcellulose (CMC)) 6 of 6; (dose: 10.0 mg/kg/injection, schedule: Q01DX010 (ip), vehicle: other) 6 of 6; under setting [5], 6 of 6; under setting [6], 6 of 6.
As for `NC(=O)N(CCCl)N=O`, the survivor count is, setting by setting: (dose: 4.0 mg/kg/injection, schedule: Q01DX010 (ip), vehicle: saline) 6 of 6; under setting [5], 6 of 6; under setting [6], 4 of 6; (dose: 64.0 mg/kg/injection, schedule: Q01DX Z (ip), vehicle: carboxymethylcellulose (CMC)) 0 of 6.
For the molecule `O=C(Nc1ccc(C2=NCCCN2)cc1)c1ccc(C(=O)Nc2ccc(C3=NCCCN3)cc2)cc1`, the T/C by setting is: (dose: 0.8 mg/kg/injection, schedule: Q01DX Z (ip), vehicle: water) 130 and 136 % of control [5 of 6 alive]; (dose: 1.0 mg/kg/injection, schedule: Q01DX010 (ip), vehicle: other) 136 % of control. The survivor count reads like this: (dose: 6.3 mg/kg/injection, schedule: Q01DX Z (ip), vehicle: water) 1 of 6; (dose: 8.0 mg/kg/injection, schedule: Q01DX010 (ip), vehicle: other) 6 of 6.
As to `CCCCn1cnc2c(=S)nc[nH]c21`, the T/C (dose: 128.0 mg/kg/injection, schedule: Q01DX010 (ip), vehicle: saline) was 127 % of control. The survivor count under setting [7] is listed as 6 of 6; the survivor count (dose: 400.0 mg/kg/injection, schedule: Q01DX Z (ip), vehicle: carboxymethylcellulose (CMC)) is recorded as 0 of 6; the survivor count (dose: 800.0 mg/kg/injection, schedule: Q01DX Z (ip), vehicle: carboxymethylcellulose (CMC)) is 0 of 6.
With `NC(Cc1ccc(N(CCCl)CCCl)cc1)C(=O)O` (centres undefined), the survivor count under setting [1] is 6 of 6; the survivor count under setting [2] is listed as 6 of 6; the survivor count under setting [3] was 6 of 6; the survivor count under setting [4] was 6 of 6; the survivor count under setting [8] is recorded as 6 of 6; the survivor count (dose: 20.0 mg/kg/injection, schedule: Q01DX Z (ip), vehicle: carboxymethylcellulose (CMC)) was 5 of 6 and 6 of 6. Besides, the T/C was 125 and 130 % of control (dose: 2.5 mg/kg/injection, schedule: Q01DX010 (ip), vehicle: saline); 127 % of control (dose: 8.0 mg/kg/injection, schedule: Q01DX010 (ip), vehicle: saline); 130 % of control (dose: 10.0 mg/kg/injection, schedule: Q01DX010 (ip), vehicle: saline).
Take `CS(=O)(=O)OCCCCOS(C)(=O)=O`: the T/C (dose: 6.25 mg/kg/injection, schedule: Q01DX010 (ip), vehicle: saline) was 131 % of control.
Regarding `CCCSc1ncnc2nc[nH]c12`, under setting [9], the T/C is 130 % of control. The survivor count is on record as 6 of 6 under setting [9]; 2 of 6 under setting [10]; 6 of 6 (dose: 100.0 mg/kg/injection, schedule: Q01DX Z (ip), vehicle: carboxymethylcellulose (CMC)); 1 of 6 under setting [7]; 4 of 6 (dose: 250.0 mg/kg/injection, schedule: Q01DX010 (ip), vehicle: saline).
Turning to `Nc1ncnc2[nH]ncc12`, the T/C by setting is: (dose: 6.0 mg/kg/injection, schedule: Q01DX010 (ip), vehicle: saline) 128 % of control; (dose: 12.0 mg/kg/injection, schedule: Q01DX010 (ip), vehicle: saline) 128 % of control. Further, the survivor count under setting [10] is on record as 2 of 6.
For the molecule `CN(N=O)C(=O)NC(C=O)C(O)C(O)C(O)CO` (centres undefined), the survivor count reads like this: (dose: 200.0 mg/kg/injection, schedule: Q01DX Z (ip), vehicle: saline) 2 of 6; (dose: 400.0 mg/kg/injection, schedule: Q01DX Z (ip), vehicle: saline) 0 of 6.
With `OCC1OC(n2cnc3c(=S)nc[nH]c32)C(O)C1O` (centres undefined), the T/C under setting [8] is 94, 100, 117 % of control; the T/C under setting [11] was 88 [5 of 6 alive], 94, 105 % of control; the T/C (dose: 80.0 mg/kg/injection, schedule: Q01DX010 (ip), vehicle: saline) was 88, 90, 94 % of control (2×); the T/C (dose: 160.0 mg/kg/injection, schedule: Q01DX010 (ip), vehicle: saline) was 90, 94 [5 of 6 alive], 100, 105 % of control. Also, the survivor count runs as follows: under setting [8], 6 of 6; under setting [11], 6 of 6; under setting [12], 6 of 6.
With `Clc1ncnc2nc[nH]c12`, the survivor count (dose: 15.0 mg/kg/injection, schedule: Q01DX010 (ip), vehicle: saline) is 5 of 6; the survivor count (dose: 60.0 mg/kg/injection, schedule: Q01DX010 (ip), vehicle: saline) is reported as 6 of 6; the survivor count under setting [12] is recorded as 0 of 6.
